Values from PubChem BioAssay AID743454 (Peter MacCallum Cancer Centre, 2014).

Assay: 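Knock-downs lowering viability or raising caspase 3/7 activity in vorinostat-treated resistant cells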 (primary screen)
System: human HCT116-VR colon cancer cells, selected for vorinostat resistance
Knock-down reagent: siRNA pool against human genes, 40 nM siRNA pool
Duration: vorinostat for 24 h, read-out about 72 h after transfection
Challenge: vorinostat at 2.5 µM final
Measured: 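Two measures, CellTiter-Fluor viability and luminescent caspase 3/7 activity, each as fold change against same-plate mock wells, mean of duplicates, then screen-wide robust z-score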
Scale: viability robust z-score: higher = more viable cells than screen typical; caspase robust z-score: higher = more caspase 3/7 activity than screen typical
Call rule: 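a knock-down is a hit when classed RV1 or RV2 for lowered viability, or CA1 or CA2 for caspase activation; those lethal without drug were dropped; hits were retested singly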
The deposit covers about 18,000 reagents; this is a random part of them. 450 of them (2.5%) were called active. 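Single biological run; no consistent viability z cut-off exists, so the class columns, not z-scores, define the calls.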 No sequences are given here.

no.	target gene	PubChem SID	viability hit class	caspase hit class	viability robust z-score	caspase robust z-score	Call
1	MAMLD1 (mastermind like domain containing 1)	SID152146894	no change	no change	-0.32	-0.58	inactive
2	ITGA4 (integrin subunit alpha 4)	SID152151904	no change	no change	0.02	-0.85	inactive
3	ACSL4 (acyl-CoA synthetase long chain family member 4)	SID134314119	no change	no change	1.34	-0.16	inactive
4	H3-3B (H3.3 histone B)	SID134316349	no change	no change	0.02	-0.92	inactive
5	SGK1 (serum/glucocorticoid regulated kinase 1)	SID152156682	no change	no change	0.98	0.3	inactive
6	TBPL1 (TATA-box binding protein like 1)	SID134321201	no change	no change	-0.32	-0.26	inactive
7	FTO (FTO alpha-ketoglutarate dependent dioxygenase)	SID152149008	no change	no change	1.17	0.05	inactive
8	PPP1R21 (protein phosphatase 1 regulatory subunit 21)	SID134321029	no change	no change	-0.57	-0.15	inactive
9	ELSPBP1 (epididymal sperm binding protein 1)	SID135622445	no change	no change	-0.64	0.24	inactive
10	FXYD7 (FXYD domain containing ion transport regulator 7)	SID135622446	no change	CA1 (caspase activation)	-1.38	5.2	active
11	C1orf56 (chromosome 1 open reading frame 56)	SID134320311	no change	no change	0.41	0	inactive
12	CAMP (cathelicidin antimicrobial peptide)	SID134323554	no change	no change	0.12	-1.12	inactive

Laid out differently: entries from further up
target gene | PubChem SID | viability hit class | caspase hit class | viability robust z-score | caspase robust z-score | Call
MAMLD1 (mastermind like domain containing 1) | SID152146894 | no change | no change | -0.32 | -0.58 | inactive
ITGA4 (integrin subunit alpha 4) | SID152151904 | no change | no change | 0.02 | -0.85 | inactive
ACSL4 (acyl-CoA synthetase long chain family member 4) | SID134314119 | no change | no change | 1.34 | -0.16 | inactive

Additional entries follow.
no.	target gene	PubChem SID	viability hit class	caspase hit class	viability robust z-score	caspase robust z-score	Call
13	RAB7A (RAB7A, member RAS oncogene family)	SID134314958	no change	no change	-0.56	-0.01	inactive
14	PABIR1	SID134319537	no change	no change	1.5	-0.72	inactive
15	CYC1 (cytochrome c1)	SID152155804	no change	no change	1.23	0.22	inactive
16	RNMT (RNA guanine-7 methyltransferase)	SID134323308	no change	no change	0.99	-0.39	inactive
17	HEMGN (hemogen)	SID134324943	no change	no change	-1.61	-1.06	inactive
18	PCDHGA6 (protocadherin gamma subfamily A, 6)	SID134317503	no change	no change	-0.35	0.05	inactive
19	STAG3L1 (STAG3 cohesin complex component like 1 (pseudogene))	SID152148821	no change	no change	-0.72	-0.28	inactive
20	ECT2 (epithelial cell transforming 2)	SID134311792	no change	no change	-0.88	2.71	inactive
21	BPIFA1 (BPI fold containing family A member 1)	SID134313479	no change	no change	0.53	-0.97	inactive
22	PHLDB1 (pleckstrin homology like domain family B member 1)	SID134326575	no change	no change	-0.18	2.31	inactive
23	MAGEA4 (MAGE family member A4)	SID152150544	no change	no change	-1.02	-0.9	inactive
